This is one part of the list.
How the values were obtained:
Test in all cases: log2 fold change, soluble protein after heating vs DMSO (PISA); higher = thermal stabilisation; K562 cells, 10 uM, 30 min; active = over 0.2 and 3.5 SD of the protein, either way, in both replicates (recomputed)
[1] = compound: C#Cc1cccc(Nc2ncnc3cc(OCCOC)c(OCCOC)cc23)c1 [erlotinib]
In short: (§1)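 K562 cells at 2×10^6 cells/mL were treated for 30 min with 10 μM compound, and aliquots were heated for 3 min over 48°C-58°C before pooling. Extraction used PBS with 0.5% NP-40 at 4°C, and soluble protein was the supernatant after 21,000xg for 90 min, measured by TMTpro 16plex LC-MS/MS with channel sums equalised. Thermal stability values, relative to control samples and from duplicates, are log2 fold changes.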

Sequences of proteins named here, by UniProt entry; tags and fusion partners are left off. A change or cut given only in a name is not applied to a line headed by its entry.
UniProt Q9Y2V0: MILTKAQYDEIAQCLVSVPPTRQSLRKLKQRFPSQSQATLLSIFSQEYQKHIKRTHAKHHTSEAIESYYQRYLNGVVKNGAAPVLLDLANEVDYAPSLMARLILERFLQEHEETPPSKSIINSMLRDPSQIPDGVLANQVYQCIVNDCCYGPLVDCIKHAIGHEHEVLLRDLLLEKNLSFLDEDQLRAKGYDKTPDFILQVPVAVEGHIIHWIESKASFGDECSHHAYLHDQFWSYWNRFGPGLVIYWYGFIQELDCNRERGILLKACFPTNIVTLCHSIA
UniProt O43684, whole entry, looked up: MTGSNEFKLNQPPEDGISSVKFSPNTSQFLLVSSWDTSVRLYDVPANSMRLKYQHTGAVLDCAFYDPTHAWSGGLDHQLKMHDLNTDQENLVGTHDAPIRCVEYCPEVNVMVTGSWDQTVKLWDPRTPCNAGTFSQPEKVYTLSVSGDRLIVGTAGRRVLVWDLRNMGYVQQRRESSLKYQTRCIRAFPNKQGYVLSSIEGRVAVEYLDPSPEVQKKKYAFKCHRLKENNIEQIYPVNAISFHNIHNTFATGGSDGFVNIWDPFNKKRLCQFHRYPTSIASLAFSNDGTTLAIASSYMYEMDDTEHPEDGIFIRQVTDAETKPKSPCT
UniProt Q9Y297: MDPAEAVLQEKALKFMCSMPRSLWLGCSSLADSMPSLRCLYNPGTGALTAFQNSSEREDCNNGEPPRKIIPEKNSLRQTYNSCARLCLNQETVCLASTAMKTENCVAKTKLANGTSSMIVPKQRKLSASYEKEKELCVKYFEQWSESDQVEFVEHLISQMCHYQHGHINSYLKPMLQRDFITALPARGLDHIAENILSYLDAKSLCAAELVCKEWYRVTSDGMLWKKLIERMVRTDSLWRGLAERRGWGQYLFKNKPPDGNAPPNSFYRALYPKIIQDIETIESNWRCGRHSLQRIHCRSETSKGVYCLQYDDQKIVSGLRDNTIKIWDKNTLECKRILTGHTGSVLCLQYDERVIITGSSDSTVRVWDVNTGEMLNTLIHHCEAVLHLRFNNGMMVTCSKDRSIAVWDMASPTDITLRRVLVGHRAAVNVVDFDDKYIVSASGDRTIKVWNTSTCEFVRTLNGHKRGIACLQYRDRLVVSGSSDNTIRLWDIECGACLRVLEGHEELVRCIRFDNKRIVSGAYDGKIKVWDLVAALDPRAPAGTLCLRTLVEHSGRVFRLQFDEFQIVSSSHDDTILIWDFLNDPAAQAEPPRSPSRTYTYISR
UniProt P07384: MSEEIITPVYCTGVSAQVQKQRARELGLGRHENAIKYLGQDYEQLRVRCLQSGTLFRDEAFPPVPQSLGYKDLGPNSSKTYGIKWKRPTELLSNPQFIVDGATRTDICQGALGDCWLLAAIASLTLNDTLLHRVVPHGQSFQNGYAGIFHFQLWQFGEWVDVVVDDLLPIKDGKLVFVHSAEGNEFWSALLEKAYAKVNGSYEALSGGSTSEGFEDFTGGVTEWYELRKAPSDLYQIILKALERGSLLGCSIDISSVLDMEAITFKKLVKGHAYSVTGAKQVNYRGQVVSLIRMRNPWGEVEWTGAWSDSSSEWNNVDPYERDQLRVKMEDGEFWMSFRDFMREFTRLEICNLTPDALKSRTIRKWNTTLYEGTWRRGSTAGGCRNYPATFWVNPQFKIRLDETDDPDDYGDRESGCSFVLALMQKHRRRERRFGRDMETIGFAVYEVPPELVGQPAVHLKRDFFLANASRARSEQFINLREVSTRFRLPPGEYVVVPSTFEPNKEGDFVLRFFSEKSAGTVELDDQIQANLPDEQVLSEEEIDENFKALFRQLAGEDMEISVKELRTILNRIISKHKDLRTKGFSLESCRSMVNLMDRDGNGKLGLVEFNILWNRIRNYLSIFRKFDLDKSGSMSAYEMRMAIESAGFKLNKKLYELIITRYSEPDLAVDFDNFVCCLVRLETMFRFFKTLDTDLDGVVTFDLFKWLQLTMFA
UniProt Q9BV19: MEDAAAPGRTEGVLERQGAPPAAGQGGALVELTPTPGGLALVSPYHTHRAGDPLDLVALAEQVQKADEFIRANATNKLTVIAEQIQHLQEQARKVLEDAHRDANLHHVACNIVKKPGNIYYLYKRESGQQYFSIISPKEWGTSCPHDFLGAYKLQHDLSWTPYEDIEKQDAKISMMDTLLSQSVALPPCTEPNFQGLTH
UniProt Q6UX52: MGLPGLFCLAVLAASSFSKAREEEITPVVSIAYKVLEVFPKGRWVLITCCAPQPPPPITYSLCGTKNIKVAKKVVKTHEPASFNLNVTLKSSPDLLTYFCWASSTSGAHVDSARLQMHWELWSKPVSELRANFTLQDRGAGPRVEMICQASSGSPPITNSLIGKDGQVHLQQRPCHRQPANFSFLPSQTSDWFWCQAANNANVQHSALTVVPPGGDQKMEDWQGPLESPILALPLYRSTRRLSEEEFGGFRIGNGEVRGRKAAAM
UniProt Q5SQH8: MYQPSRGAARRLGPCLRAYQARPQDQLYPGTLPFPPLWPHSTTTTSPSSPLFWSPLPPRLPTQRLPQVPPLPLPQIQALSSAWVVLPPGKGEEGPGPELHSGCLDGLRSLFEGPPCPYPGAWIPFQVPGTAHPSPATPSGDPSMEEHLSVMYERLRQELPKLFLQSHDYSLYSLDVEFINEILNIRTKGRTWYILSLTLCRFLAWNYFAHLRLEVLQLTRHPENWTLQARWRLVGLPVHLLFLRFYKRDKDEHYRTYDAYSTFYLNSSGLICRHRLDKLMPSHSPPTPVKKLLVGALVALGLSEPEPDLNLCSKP
UniProt Q9BVC5: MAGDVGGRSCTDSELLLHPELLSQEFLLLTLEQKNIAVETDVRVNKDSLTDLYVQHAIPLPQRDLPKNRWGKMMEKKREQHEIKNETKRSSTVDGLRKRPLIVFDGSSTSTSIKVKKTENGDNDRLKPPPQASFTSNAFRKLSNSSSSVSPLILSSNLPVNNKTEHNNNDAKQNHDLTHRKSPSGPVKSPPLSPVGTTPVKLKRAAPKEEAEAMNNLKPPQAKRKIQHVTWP
UniProt O60566, whole entry, looked up: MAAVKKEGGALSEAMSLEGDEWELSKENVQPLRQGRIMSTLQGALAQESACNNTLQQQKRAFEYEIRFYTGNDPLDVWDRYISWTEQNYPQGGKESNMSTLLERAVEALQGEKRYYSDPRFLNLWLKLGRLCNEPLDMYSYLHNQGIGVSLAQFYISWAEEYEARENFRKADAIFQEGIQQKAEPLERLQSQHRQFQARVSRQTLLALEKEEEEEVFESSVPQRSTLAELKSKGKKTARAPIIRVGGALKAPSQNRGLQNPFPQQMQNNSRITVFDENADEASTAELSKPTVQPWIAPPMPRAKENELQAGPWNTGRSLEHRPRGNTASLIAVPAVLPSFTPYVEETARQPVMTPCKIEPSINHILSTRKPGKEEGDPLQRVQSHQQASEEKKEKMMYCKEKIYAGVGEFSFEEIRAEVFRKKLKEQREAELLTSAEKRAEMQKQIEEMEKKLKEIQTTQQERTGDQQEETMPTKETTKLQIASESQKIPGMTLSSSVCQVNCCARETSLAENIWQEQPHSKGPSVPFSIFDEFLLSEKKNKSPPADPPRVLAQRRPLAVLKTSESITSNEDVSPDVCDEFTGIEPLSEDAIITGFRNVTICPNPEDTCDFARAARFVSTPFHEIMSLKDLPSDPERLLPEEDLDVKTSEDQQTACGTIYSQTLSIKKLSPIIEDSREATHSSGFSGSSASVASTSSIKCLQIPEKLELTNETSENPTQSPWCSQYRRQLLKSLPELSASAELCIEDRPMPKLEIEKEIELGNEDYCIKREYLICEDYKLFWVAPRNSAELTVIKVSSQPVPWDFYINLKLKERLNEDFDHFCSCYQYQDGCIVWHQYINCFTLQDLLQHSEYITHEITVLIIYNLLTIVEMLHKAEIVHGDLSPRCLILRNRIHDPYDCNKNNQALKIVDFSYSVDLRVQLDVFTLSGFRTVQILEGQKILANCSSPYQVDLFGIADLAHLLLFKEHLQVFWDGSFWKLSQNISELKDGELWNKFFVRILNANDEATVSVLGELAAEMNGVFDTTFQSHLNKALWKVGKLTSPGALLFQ
UniProt Q9NS00: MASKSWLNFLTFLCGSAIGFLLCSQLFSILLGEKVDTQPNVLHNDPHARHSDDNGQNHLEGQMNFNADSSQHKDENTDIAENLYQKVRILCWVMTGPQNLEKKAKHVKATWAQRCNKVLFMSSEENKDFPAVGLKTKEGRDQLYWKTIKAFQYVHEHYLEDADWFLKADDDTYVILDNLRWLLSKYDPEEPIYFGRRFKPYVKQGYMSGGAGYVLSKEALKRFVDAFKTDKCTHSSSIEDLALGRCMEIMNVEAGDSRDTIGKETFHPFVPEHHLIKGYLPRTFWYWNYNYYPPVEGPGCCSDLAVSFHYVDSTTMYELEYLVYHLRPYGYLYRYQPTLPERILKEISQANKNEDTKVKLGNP
UniProt Q13137: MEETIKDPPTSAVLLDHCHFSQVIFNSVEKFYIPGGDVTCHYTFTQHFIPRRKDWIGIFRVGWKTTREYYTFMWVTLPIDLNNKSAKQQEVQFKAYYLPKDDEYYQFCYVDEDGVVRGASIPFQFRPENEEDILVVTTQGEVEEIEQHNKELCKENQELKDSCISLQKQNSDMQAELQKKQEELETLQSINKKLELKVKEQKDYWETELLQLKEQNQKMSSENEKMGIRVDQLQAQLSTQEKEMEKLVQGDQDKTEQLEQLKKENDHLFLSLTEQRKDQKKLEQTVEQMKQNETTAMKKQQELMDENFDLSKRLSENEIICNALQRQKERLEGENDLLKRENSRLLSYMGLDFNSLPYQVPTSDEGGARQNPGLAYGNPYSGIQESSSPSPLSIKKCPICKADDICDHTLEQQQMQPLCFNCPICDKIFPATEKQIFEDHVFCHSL
UniProt Q5SNV9: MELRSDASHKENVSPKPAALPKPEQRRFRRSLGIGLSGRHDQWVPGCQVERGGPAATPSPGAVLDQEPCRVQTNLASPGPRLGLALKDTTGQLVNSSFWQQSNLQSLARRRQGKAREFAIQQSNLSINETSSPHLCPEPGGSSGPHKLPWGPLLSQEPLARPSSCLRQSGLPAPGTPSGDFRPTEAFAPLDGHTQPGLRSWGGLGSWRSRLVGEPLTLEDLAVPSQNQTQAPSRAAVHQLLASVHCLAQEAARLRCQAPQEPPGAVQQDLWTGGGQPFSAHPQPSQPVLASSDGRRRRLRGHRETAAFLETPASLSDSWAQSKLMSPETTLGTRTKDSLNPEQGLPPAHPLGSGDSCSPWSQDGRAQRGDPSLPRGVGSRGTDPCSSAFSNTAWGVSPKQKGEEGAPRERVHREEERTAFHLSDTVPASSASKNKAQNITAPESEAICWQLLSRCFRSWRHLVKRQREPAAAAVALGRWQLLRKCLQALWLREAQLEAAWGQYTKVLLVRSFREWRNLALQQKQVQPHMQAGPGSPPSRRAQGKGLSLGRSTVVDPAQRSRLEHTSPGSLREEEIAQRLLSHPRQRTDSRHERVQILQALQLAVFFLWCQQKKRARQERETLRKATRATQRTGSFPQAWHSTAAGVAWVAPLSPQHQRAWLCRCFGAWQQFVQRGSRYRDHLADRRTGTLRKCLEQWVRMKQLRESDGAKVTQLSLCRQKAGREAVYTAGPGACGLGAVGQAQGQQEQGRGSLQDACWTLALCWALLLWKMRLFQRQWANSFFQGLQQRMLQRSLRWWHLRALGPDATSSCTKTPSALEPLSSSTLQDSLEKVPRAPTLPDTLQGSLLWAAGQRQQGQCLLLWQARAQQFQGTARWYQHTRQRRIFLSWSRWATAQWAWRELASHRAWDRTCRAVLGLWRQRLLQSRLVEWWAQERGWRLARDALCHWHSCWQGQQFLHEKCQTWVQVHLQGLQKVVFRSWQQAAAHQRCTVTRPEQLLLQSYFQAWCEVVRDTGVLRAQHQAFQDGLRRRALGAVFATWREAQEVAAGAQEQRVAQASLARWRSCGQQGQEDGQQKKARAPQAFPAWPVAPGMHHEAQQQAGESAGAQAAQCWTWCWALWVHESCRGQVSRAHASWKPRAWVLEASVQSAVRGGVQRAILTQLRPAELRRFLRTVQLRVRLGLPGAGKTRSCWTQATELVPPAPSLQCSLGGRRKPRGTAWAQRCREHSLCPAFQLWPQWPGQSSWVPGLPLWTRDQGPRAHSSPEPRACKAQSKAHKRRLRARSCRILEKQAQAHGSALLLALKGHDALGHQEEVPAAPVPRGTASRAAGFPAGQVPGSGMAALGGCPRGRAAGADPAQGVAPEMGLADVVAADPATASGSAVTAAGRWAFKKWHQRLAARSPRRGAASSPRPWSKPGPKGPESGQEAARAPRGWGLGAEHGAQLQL
UniProt Q9H3J6: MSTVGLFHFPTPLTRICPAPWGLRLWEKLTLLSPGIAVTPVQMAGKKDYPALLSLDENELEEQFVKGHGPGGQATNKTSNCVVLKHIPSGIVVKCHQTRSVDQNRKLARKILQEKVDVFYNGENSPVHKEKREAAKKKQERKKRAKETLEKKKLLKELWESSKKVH

[2] = compound: C/C(=N\NC(=O)C1=CC(=CC=C1)S(=O)(=O)N2CCOCC2)/C3=C(C=CC(=C3)Cl)O
In short: as §1

[3] = compound: C1=CC(=C(C=C1Cl)C2=NC3=NC=CN=C3C(=N2)NC4=CC=NC=C4)F
In short: as §1

[4] = compound: C1=CC(=CC=C1C2=NC3=C(N2)C=C(C=C3)C(=O)N)OC4=CC=C(C=C4)Cl
In short: as §1

[5] = compound: C1=CC2=C(C=CC(=C2)/C=C\3/C(=O)NC(=NCC4=CC=CS4)S3)N=C1
In short: as §1

[6] = compound: C1=CC2=NC=CN=C2C=C1/C=C/3\C(=O)NC(=O)S3
In short: as §1

[7] = compound: C1=CC=C(C=C1)C2=NC(=C(N2)C3=CC=NC=C3)C4=CC(=C(C=C4)Cl)O
In short: as §1

[8] = compound: C1=CC=C2C(=C1)C3=NNC4=CC=CC(=C43)C2=O
In short: as §1

[9] = compound: C1CCN(C1)C(=O)NC2=CC=CC(=C2)NC3=NC=C(C(=N3)NCCC4=CN=CN4)Br
In short: as §1

[10] = compound: C1CN(CCC1(CC2=CC=C(C=C2)Cl)N)C3=NC=NC4=C3C=CN4
In short: as §1

Target	log2 fold change [1]	log2 fold change [2]	log2 fold change [3]	log2 fold change [4]	log2 fold change [5]	log2 fold change [6]	log2 fold change [7]	log2 fold change [8]	log2 fold change [9]	log2 fold change [10]
CAD (UniProt P27708)	inactive: -0.083	inactive: 0.042	inactive: -0.014	inactive: -0.003	inactive: 0.125	inactive: -0.011	inactive: 0.057	inactive: -0.063	inactive: 0.013	inactive: 0.046
C15orf41 (UniProt Q9Y2V0)	inactive: 0.02	inactive: 0.017	inactive: 0.002	inactive: -0.033	inactive: -0.018		inactive: 0.001	inactive: -0.098	inactive: 0.115	inactive: 0.075
CAB39L (UniProt Q9H9S4)	inactive: -0.026	inactive: -0.001	inactive: -0.088	inactive: 0.065	inactive: 0.042	inactive: 0.015	inactive: 0.007	inactive: -0.117	inactive: -0.068	inactive: -0.306
BUB3 (UniProt O43684)	inactive: 0.028	inactive: 0.021	inactive: -0.019	inactive: 0.023	inactive: 0.039	inactive: 0.006	inactive: -0.051	inactive: -0.005	inactive: -0.005	inactive: 0
BTRC (UniProt Q9Y297)	inactive: -0.022	inactive: -0.036	inactive: -0.06	inactive: 0.153	inactive: 0.042	inactive: -0.156		inactive: -0.081	inactive: 0.008	inactive: 0.122
CAPN15 (UniProt O75808)	inactive: 0.109		inactive: 0.186	inactive: 0.001		inactive: 0.167				
CAPN1 (UniProt P07384)	inactive: 0.02	inactive: 0.033	inactive: 0.071	inactive: 0.019	inactive: -0.008	inactive: 0.012	inactive: -0.009	inactive: -0.025	inactive: -0.033	inactive: 0.056
CA2 (UniProt P00918)	inactive: 0.058	inactive: 0.112		inactive: 0.025	inactive: 0.055	inactive: -0.025		inactive: -0.131	inactive: -0.024	inactive: 0.021
C1orf50 (UniProt Q9BV19)	inactive: 0.12	inactive: -0.048	inactive: 0.177	inactive: 0.244	inactive: 0.093	inactive: 0.028	inactive: 0.015	inactive: 0.003	inactive: 0.041	inactive: -0.09
CACTIN isoform 2 (UniProt Q8WUQ7)	inactive: 0.054	inactive: -0.094	inactive: -0.054	inactive: 0.072	inactive: 0.009	inactive: -0.196		inactive: 0.034	inactive: -0.056	inactive: -0.1
BUD13 (UniProt Q9BRD0)	inactive: 0.001	inactive: -0.181	inactive: -0.423	inactive: -0.083	inactive: 0.06		inactive: -0.143	inactive: -0.011	inactive: 0.033	inactive: 0.036
BUB1 (UniProt O43683)	inactive: 0.311	inactive: -0.082	inactive: 0.096	inactive: -0.05	inactive: 0.207	inactive: 0.117	inactive: -0.199	inactive: 0.021	inactive: 0.142	inactive: 0.083
C17orf99 (UniProt Q6UX52)	inactive: -0.114	inactive: -0.565	inactive: 0.12	inactive: -0.336	inactive: -0.025			inactive: -0.007		
C7 (UniProt P10643)	inactive: -0.166	inactive: -0.068	inactive: -0.091	inactive: 0.108	inactive: 0.367	inactive: -0.08		inactive: -0.407	inactive: -0.091	inactive: 0.205
C19orf57 (UniProt Q0VDD7)	inactive: -0.144	inactive: -0.046		inactive: 0.123	inactive: 0.181	inactive: 0.151	inactive: 0.006	inactive: -0.028		
CANX isoform 2 (UniProt P27824)	inactive: -0.068	inactive: -0.115	inactive: -0.027	inactive: -0.016	inactive: -0.089	inactive: -0.005	inactive: -0.03	inactive: 0.021	inactive: 0.015	inactive: -0.018

Two entries drawn at random from the list so far, as already listed:
Target	log2 fold change [1]	log2 fold change [2]	log2 fold change [3]	log2 fold change [4]	log2 fold change [5]	log2 fold change [6]	log2 fold change [7]	log2 fold change [8]	log2 fold change [9]	log2 fold change [10]
CAPN15 (UniProt O75808)	inactive: 0.109		inactive: 0.186	inactive: 0.001		inactive: 0.167				
CANX isoform 2 (UniProt P27824)	inactive: -0.068	inactive: -0.115	inactive: -0.027	inactive: -0.016	inactive: -0.089	inactive: -0.005	inactive: -0.03	inactive: 0.021	inactive: 0.015	inactive: -0.018

(further entries)

Target	log2 fold change [1]	log2 fold change [2]	log2 fold change [3]	log2 fold change [4]	log2 fold change [5]	log2 fold change [6]	log2 fold change [7]	log2 fold change [8]	log2 fold change [9]	log2 fold change [10]
C6orf136 isoform 4 (UniProt Q5SQH8)	inactive: 0.08	inactive: 0.117		inactive: -0.078	inactive: 0.068	inactive: -0.613	inactive: -0.02	inactive: -0.049	inactive: -0.041	inactive: 0.151
CA1 (UniProt P00915)	inactive: -0.025	inactive: 0.022	inactive: 0.03	inactive: 0.006	inactive: -0.079	inactive: 0.009	inactive: 0.064	inactive: 0.004	inactive: 0.018	inactive: 0.054
C2orf49 (UniProt Q9BVC5)	inactive: -0.032	inactive: 0.023	inactive: -0.291	inactive: -0.082	inactive: -0.081	inactive: 0.038	inactive: 0.07	inactive: 0.117	inactive: 0.042	inactive: -0.129
CA13 (UniProt Q8N1Q1)	inactive: -0.004	inactive: 0.041	inactive: 0.048	inactive: -0.026	inactive: -0.033	inactive: 0.134	inactive: 0.07	inactive: 0.017	inactive: -0.14	inactive: -0.061
C17orf80 (UniProt Q9BSJ5)	inactive: -0.041	inactive: -0.083	inactive: 0.019	inactive: 0.104	inactive: 0.024	inactive: -0.069	inactive: -0.045	inactive: -0.084	inactive: 0.06	inactive: 0.002
CAPN2 (UniProt P17655)	inactive: 0.029	inactive: 0.025	inactive: 0.071	inactive: 0.023	inactive: 0.008	inactive: -0.012	inactive: 0.016	inactive: 0.015	inactive: -0.007	inactive: 0.04
BUB1B isoform 3 (UniProt O60566)	inactive: 0.019	inactive: 0.054	inactive: -0.049	inactive: -0.031	inactive: 0.157	inactive: 0.052	inactive: 0.037	inactive: -0.038	inactive: -0.031	inactive: -0.095
C19orf54 (UniProt Q5BKX5)	inactive: -0.094	inactive: -0.054	inactive: 0.024	inactive: 0.008	inactive: -0.005		inactive: -0.024	inactive: 0.026	inactive: -0.027	active: -0.543
C1GALT1 (UniProt Q9NS00)	inactive: 0.006	inactive: -0.041	inactive: -0.013	inactive: -0.005	inactive: 0.039	inactive: 0.005	inactive: -0.052	inactive: -0.119	inactive: -0.019	inactive: 0.009
CALCOCO2 isoform 4 (UniProt Q13137)	inactive: -0.081	inactive: 0.018	inactive: -0.08	inactive: 0.059	inactive: 0.022	inactive: -0.043	inactive: -0.003	inactive: -0.057	inactive: -0.016	inactive: -0.052
CAPNS1 (UniProt U3KPR7)	inactive: -0.092	inactive: 0.084		inactive: -0.136	inactive: -0.138			inactive: 0.373		
C1orf167 isoform 2 (UniProt Q5SNV9)	inactive: 0.089		inactive: -0.088	inactive: 0.037		inactive: 0.158				
C12orf65 (UniProt Q9H3J6)	inactive: -0.065	inactive: -0.168		inactive: 0.051	inactive: -0.159	inactive: -0.069	inactive: -0.004	inactive: 0.003		
C1orf159 isoform 4 (UniProt Q96HA4)						inactive: -0.05				
C3orf38 (UniProt Q5JPI3)		inactive: -0.044	inactive: 0.142		inactive: -0.137	inactive: 0.093	inactive: -0.154	inactive: 0.175	inactive: -0.043	inactive: 0
C12orf73 (UniProt Q69YU5)	inactive: -0.081		inactive: 0.178	inactive: -0.049		inactive: 0.098	inactive: 0.003		inactive: 0.057	inactive: 0.033

— the supplement of paper PMC10849652
